Results deposited as PubChem BioAssay AID1259283 (Sanger Institute, 2017)

Aim: 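Kinases whose silencing adds to targeted drugs in killing colon cancer cells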 (primary screen)
Cells: HT115 colorectal cancer cells
Reagent: siRNA pool against human genes
Challenge: anchor drug given one day after siRNA: BYL719 at 1 µM, cetuximab at 5 µg/ml, trametinib at 10 nM, or DMSO vehicle alone
Read-out: 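Per-drug synergy scores plus replicate-mean viability relative to non-targeting pool #2 wells, also expressed as a robust z-score based on control wells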
Reading the numbers: robust z-score, knock-down alone: higher = more viable cells after knock-down
Rule for the call: 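Essential gene: robust z-score less than -3 with no drug added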
Calls: active = essential (z below -3, no drug); inactive = no change without drug
Here is one part, drawn at random, of 794 reagents. Of all reagents, 14 (1.8%) are marked active. 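Calls reflect only viability loss without drug; drug synergy does not enter the call.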 Further read-outs or replicates are left out here. No sequences are given here. The record does not give: the amount of reagent, the time to read-out.

What is on record for MYLK3 (GeneID 91807) [SID152154935]?
robust z-score, knock-down alone: 0.418; activity call: inactive

What did the screen give for GSK3A (GeneID 2931) [SID56478467]?
robust z-score, knock-down alone: 0.515; activity call: inactive

With PRKAR1A (GeneID 5573) [SID135621428], what does the deposit list?
robust z-score, knock-down alone: 0.789; activity call: inactive

With ACVR1B (GeneID 91) [SID56478918], how do the results read?
robust z-score, knock-down alone: 0.789; activity call: inactive

What is on record for CDKL5 (GeneID 6792) [SID135620888]?
robust z-score, knock-down alone: -0.503; activity call: inactive

With WT1 (GeneID 7490) [SID152147201], what does the deposit list?
robust z-score, knock-down alone: -0.134; activity call: inactive

For RBKS (GeneID 64080) [SID56479147], what does the deposit list?
robust z-score, knock-down alone: 0.713; activity call: inactive

What is on record for NADK (GeneID 65220) [SID152150245]?
robust z-score, knock-down alone: 0.789; activity call: inactive

For WNK1 (GeneID 65125) [SID152148140], what was measured?
robust z-score, knock-down alone: -0.991; activity call: inactive

What did the screen give for PI4KA (GeneID 5297) [SID135621251]?
robust z-score, knock-down alone: 0.789; activity call: inactive

How did the screen score CSNK2B (GeneID 1460) [SID56479183]?
robust z-score, knock-down alone: -0.499; activity call: inactive

How did the screen score FGFRL1 (GeneID 53834) [SID135622448]?
robust z-score, knock-down alone: -0.464; activity call: inactive

What is on record for CAMK4 (GeneID 814) [SID56478933]?
robust z-score, knock-down alone: 0.395; activity call: inactive

For MAP2K5 (GeneID 5607) [SID135620764], what was measured?
robust z-score, knock-down alone: 0.191; activity call: inactive

With NUAK1 (GeneID 9891) [SID56478923], how do the results read?
robust z-score, knock-down alone: 0.456; activity call: inactive

With TNNI3K (GeneID 51086) [SID56478945], what was measured?
robust z-score, knock-down alone: 0.789; activity call: inactive

What did the screen give for DLG2 (GeneID 1740) [SID152155470]?
robust z-score, knock-down alone: 0.416; activity call: inactive

How did the screen score PMVK (GeneID 10654) [SID135621255]?
robust z-score, knock-down alone: -0.676; activity call: inactive

What did the screen give for HCK (GeneID 3055) [SID135620622]?
robust z-score, knock-down alone: 0.47; activity call: inactive

With PDK4 (GeneID 5166) [SID152155412], how do the results read?
robust z-score, knock-down alone: -0.624; activity call: inactive

For ITPKA (GeneID 3706) [SID152154114], what was measured?
robust z-score, knock-down alone: -0.762; activity call: inactive

How did the screen score MAPK6 (GeneID 5597) [SID56478707]?
robust z-score, knock-down alone: 0.061; activity call: inactive

Look-ups from the entries so far:
TNNI3K (GeneID 51086) [SID56478945], activity call: inactive
Value of ACVR1B (GeneID 91) [SID56478918] under “activity call”: inactive
Result of PDK4 (GeneID 5166) [SID152155412] in “robust z-score, knock-down alone”: -0.624

Further entries follow.
What did the screen give for FLT3 (GeneID 2322) [SID152150278]?
robust z-score, knock-down alone: 0.292; activity call: inactive

What did the screen give for HIPK4 (GeneID 147746) [SID135620890]?
robust z-score, knock-down alone: 0.789; activity call: inactive

With PLK2 (GeneID 10769) [SID56478648], what was measured?
robust z-score, knock-down alone: 0.789; activity call: inactive

With IKBKG (GeneID 8517) [SID152147833], what does the deposit list?
robust z-score, knock-down alone: 0.187; activity call: inactive

What did the screen give for FGFR2 (GeneID 2263) [SID152155469]?
robust z-score, knock-down alone: -0.177; activity call: inactive

For RBM10 (GeneID 8241) [SID134313901], what does the deposit list?
robust z-score, knock-down alone: -1.07; activity call: inactive

For NME7 (GeneID 29922) [SID56479121], what does the deposit list?
robust z-score, knock-down alone: 0.789; activity call: inactive

How did the screen score MYLK4 (GeneID 340156) [SID152150692]?
robust z-score, knock-down alone: 0.0923; activity call: inactive

For MASTL (GeneID 84930) [SID56478754], what was measured?
robust z-score, knock-down alone: -2.18; activity call: inactive

How did the screen score NPR2 (GeneID 4882) [SID152151652]?
robust z-score, knock-down alone: 0.789; activity call: inactive

What is on record for CKMT2 (GeneID 1160) [SID152154085]?
robust z-score, knock-down alone: 0.789; activity call: inactive

With MAST3 (GeneID 23031) [SID152151496], how do the results read?
robust z-score, knock-down alone: 0.789; activity call: inactive

What is on record for BLK (GeneID 640) [SID56478485]?
robust z-score, knock-down alone: 0.789; activity call: inactive

For TAOK2 (GeneID 9344) [SID57288958], what does the deposit list?
robust z-score, knock-down alone: 0.164; activity call: inactive
